Consider 3 substances from paper PMC3411732.

Protein sequences, listed by entry. Tags and fused reporters are not part of them. Lines headed by an entry give the natural chain unless they say otherwise; changes in a name come on top. Residues count along the entry.
UniProt P12978: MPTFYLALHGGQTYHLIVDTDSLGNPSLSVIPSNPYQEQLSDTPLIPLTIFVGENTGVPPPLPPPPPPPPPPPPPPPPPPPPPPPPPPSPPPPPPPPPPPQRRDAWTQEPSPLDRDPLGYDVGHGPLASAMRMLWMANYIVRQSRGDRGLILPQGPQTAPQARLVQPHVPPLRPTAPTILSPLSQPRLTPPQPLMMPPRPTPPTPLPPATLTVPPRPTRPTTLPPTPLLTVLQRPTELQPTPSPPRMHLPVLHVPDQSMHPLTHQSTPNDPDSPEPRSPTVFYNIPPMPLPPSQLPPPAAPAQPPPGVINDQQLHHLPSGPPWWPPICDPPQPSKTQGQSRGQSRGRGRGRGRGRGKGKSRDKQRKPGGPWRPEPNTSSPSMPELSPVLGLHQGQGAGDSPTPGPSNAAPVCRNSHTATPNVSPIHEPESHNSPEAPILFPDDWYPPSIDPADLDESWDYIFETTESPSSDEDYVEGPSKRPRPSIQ
GST-EBNA2 fusion protein containing aa 300–400 of EBNA2, unmethylated (NMA): residues 300-400 of P12978
GST-EBNA2 aa400–487 fusion protein: residues 400-487 of P12978

No constants are given. Whether binding was seen depends on the method and setting. For some of these results: Binding seen in cells or lysates may run through a third protein. Some binding calls cover weakened binding; strength is not graded here.

Assay [1] deals with GFP-EBNA2 fusion protein, expressed in BHK cells with a lacO array (Epstein-Barr virus) (UniProt P12978). In words: two-hybrid; fluorescent two-hybrid assay in BHK cells with a genomic lacO array: GFP fusion (bait) captured at the array by GBP-LacI, co-localisation of the CFP or DsRed fusion (prey) at the lacO spot; cells fixed about 16 h after transfection.
Assay [2] has as its target GFP-hnRNP K, expressed in BHK cells with a lacO array (UniProt P61978). Described as above.
In assay [3] the target is GST-EBNA2 aa400–487 fusion protein (Epstein-Barr virus) (UniProt P12978). In words: pull-down; GST fusion proteins on glutathione-Sepharose beads, incubated 2 h at 4°C with 500 µl DG75 native whole cell extract (AdOx-treated), washed 5 times with lysis buffer containing 0.5 M NaCl; hnRNP K detected with mAb D-6; only the target purified.
Assay [4] addresses GST-EBNA2 fusion protein containing aa 300–400 of EBNA2, unmethylated (NMA) (Epstein-Barr virus) (UniProt P12978). Described as above.

“CFP-hnRNP K fusion protein, expressed in BHK cells (from UniProt P61978 1-463)”: the binding result in assay [1] is “binds”.
As for “DsRed-EBNA2, expressed in BHK cells (from UniProt P12978 1-487)”, the binding result in assay [2] is given as “binds”.
Turning to “hnRNP K, endogenous in DG75 cells (from UniProt P61978 1-463)”, the values for the binding entry in assay [3] and in assay [4] were “no binding” and “binds”, respectively.
